Results taken from US20140350088.
Construct, isoform or probe ends are uncertain for at least one entry. A weaker result is weaker than the reference pair of the same experiment. For some of these results: Where a protein sequence is shown, tags need not be part of it. For some of these results: Whether high values mean tight binding is not given here for every scale.

Amino acid sequences for entries named in this document (tags omitted). Residues count along the entry.
UniProt P01275, 53-81: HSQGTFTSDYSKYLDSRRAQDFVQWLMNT

Assays:
[1] = biological target: T1, human C5a (Homo sapiens) (UniProt P01031); assay: SPR; settings: L-RNA, purified recombinant protein, protein details: Sigma Aldrich
T1 sequence: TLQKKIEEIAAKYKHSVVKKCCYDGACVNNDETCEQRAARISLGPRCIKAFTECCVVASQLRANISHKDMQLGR

[2] = biological target: biotinylated human glucagon (Homo sapiens) (UniProt P01275); assay: SPR; settings: synthetic protein, mirror-image nucleic acid

## GCCUGAUGUGGUGGUGAAGGGUUGUUGGGUGUCGACGCACAGGC [NOX-D19001-D08]
[1]; dG at 8, reduced or lost binding vs parent, amine-coupled for SPR, mirror-image nucleic acid, variant of NOX-D19001
  binding result: binds more weakly

## GCCUGAUGUGGUGGUGAAGGGUUGUUGGGUGUCGACGCACAGGC [NOX-D19001-D01]
[1]; 2'-deoxy at 1, improved vs parent, 37 C, amine coupled to CM5 chip, synthetic backbone, mirror-image nucleic …
  binding result: binds

## GCCUGAUGUGGUGGUGAAGGGUUGUUGGGUGUCGACGCACAGGC [NOX-D19001-D09-32]
[1]; dU at 9, 32, better than single substitutions, amine-coupled for SPR, mirror-image nucleic acid, variant of NOX-D19001
  binding result: binds

## GCCUGAUGUGGUGGUGAAGGGUUGUUGGGUGUCGACGCACAGGC [NOX-D19001-D20]
[1]; 2'-deoxy at 20, reduced or lost vs parent, 37 C, amine coupled to CM5 chip, synthetic backbone, mirror-image nucleic acid
  binding result: binds more weakly

## GCCUGAUGUGGUGGUGAAGGGUUGUUGGGUGUCGACGCACAGGC [NOX-D19001-D22]
[1]; dU at 22, improved vs parent, 37 C, amine coupled to CM5 chip, synthetic backbone, mirror-image nucleic …
  binding result: binds

## GCCUGAUGUGGUGGUGAAGGGUUGUUGGGUGUCGACGCACAGGC [NOX-D19001-D06]
[1]; dA at 6, reduced or lost binding vs parent, amine-coupled for SPR, mirror-image nucleic acid, variant of NOX-D19001
  binding result: binds more weakly

## GCCUGAUGUGGUGGUGAAGGGUUGUUGGGUGUCGACGCACAGGC [NOX-D19001-D15]
[1]; dU at 15, reduced or lost vs parent, 37 C, amine coupled to CM5 chip, synthetic backbone, mirror-image nucleic acid
  binding result: binds more weakly

## GCCUGAUGUGGUGGUGAAGGGUUGUUGGGUGUCGACGCACAGGC [NOX-D19001-D09-16-30-32-40]
[1]; dU at 9, 30, 32, dG at 16, dC at 40, better than D09-30-32-40, amine-coupled for SPR, mirror-image nucleic acid, variant of NOX-D19001
  binding result: binds

## GCCUGAUGUGGUGGUGAAGGGUUGUUGGGUGUCGACGCACAGGC [NOX-D19001-D30-40]
[1]; dU at 30, dC at 40, better than single substitutions, amine-coupled for SPR, mirror-image nucleic acid, variant of NOX-D19001
  binding result: binds

## GCCUGAUGUGGUGGUGAAGGGUUGUUGGGUGUCGACGCACAGGC [NOX-D19001-D03]
[1]; 2'-deoxy at 3, unchanged vs parent, 37 C, amine coupled to CM5 chip, synthetic backbone, mirror-image nucleic acid
  binding result: binds

## GCCUGAUGUGGUGGUGAAGGGUUGUUGGGUGUCGACGCACAGGC [NOX-D19001-D42]
[1]; 2'-deoxy at 42, improved vs parent, 37 C, amine coupled to CM5 chip, synthetic backbone, mirror-image nucleic …
  binding result: binds

## GCCUGAUGUGGUGGUGAAGGGUUGUUGGGUGUCGACGCACAGGC [NOX-D19001-D02]
[1]; 2'-deoxy at 2, improved vs parent, 37 C, amine coupled to CM5 chip, synthetic backbone, mirror-image nucleic …
  binding result: binds

## GCCUGAUGUGGUGGUGAAGGGUUGUUGGGUGUCGACGCACAGGC [NOX-D19001-D32]
[1]; dU at 32, improved vs parent, amine-coupled for SPR, mirror-image nucleic acid, variant of NOX-D19001
  binding result: binds

## GCCUGAUGUGGUGGUGAAGGGUUGUUGGGUGUCGACGCACAGGC [NOX-D19001-D36]
[1]; 2'-deoxy at 36, reduced or lost vs parent, 37 C, amine coupled to CM5 chip, synthetic backbone, mirror-image nucleic acid
  binding result: binds more weakly

## GCCUGAUGUGGUGGUGAAGGGUUGUUGGGUGUCGACGCACAGGC [NOX-D19001-D27]
[1]; 2'-deoxy at 27, reduced or lost vs parent, 37 C, amine coupled to CM5 chip, synthetic backbone, mirror-image nucleic acid
  binding result: binds more weakly

## GCCUGAUGUGGUGGUGAAGGGUUGUUGGGUGUCGACGCACAGGC [NOX-D19001-D04]
[1]; dU at 4, reduced or lost binding vs parent, amine-coupled for SPR, mirror-image nucleic acid, variant of NOX-D19001
  binding result: binds more weakly

## GCCUGAUGUGGUGGUGAAGGGUUGUUGGGUGUCGACGCACAGGC [NOX-D19001-D12]
[1]; dU at 12, reduced or lost vs parent, 37 C, amine coupled to CM5 chip, synthetic backbone, mirror-image nucleic acid
  binding result: binds more weakly

## GCCUGAUGUGGUGGUGAAGGGUUGUUGGGUGUCGACGCACAGGC [NOX-D19001-D25]
[1]; dU at 25, improved vs parent, 37 C, amine coupled to CM5 chip, synthetic backbone, mirror-image nucleic …
  binding result: binds

## GCCUGAUGUGGUGGUGAAGGGUUGUUGGGUGUCGACGCACAGGC [NOX-D19001-D07-30]
[1]; dU at 7, 30, reduced by dU at 7, amine-coupled for SPR, mirror-image nucleic acid, variant of NOX-D19001
  binding result: binds more weakly

## GCCUGAUGUGGUGGUGAAGGGUUGUUGGGUGUCGACGCACAGGC [NOX-D19001-D07-16-17-30-32-40]
[1]; dU at 7, 30, 32, dG at 16, dA at 17, dC at 40, partly restored relative to D07-30, amine-coupled for SPR, mirror-image nucleic acid, variant of NOX-D19001
  binding result: binds more weakly

## GCCUGAUGUGGUGGUGAAGGGUUGUUGGGUGUCGACGCACAGGC [NOX-D19001-D10]
[1]; dG at 10, reduced or lost binding vs parent, amine-coupled for SPR, mirror-image nucleic acid, variant of NOX-D19001
  binding result: binds more weakly

## GCCUGAUGUGGUGGUGAAGGGUUGUUGGGUGUCGACGCACAGGC [NOX-D19001-D28]
[1]; 2'-deoxy at 28, reduced or lost vs parent, 37 C, amine coupled to CM5 chip, synthetic backbone, mirror-image nucleic acid
  binding result: binds more weakly

## GCCUGAUGUGGUGGUGAAGGGUUGUUGGGUGUCGACGCACAGGC [NOX-D19001-D05]
[1]; dG at 5, reduced or lost binding vs parent, amine-coupled for SPR, mirror-image nucleic acid, variant of NOX-D19001
  binding result: binds more weakly

## GCCUGAUGUGGUGGUGAAGGGUUGUUGGGUGUCGACGCACAGGC [NOX-D19001-D14]
[1]; 2'-deoxy at 14, reduced or lost vs parent, 37 C, amine coupled to CM5 chip, synthetic backbone, mirror-image nucleic acid
  binding result: binds more weakly

## GCCUGAUGUGGUGGUGAAGGGUUGUUGGGUGUCGACGCACAGGC [NOX-D19001-D39]
[1]; 2'-deoxy at 39, unchanged vs parent, 37 C, amine coupled to CM5 chip, synthetic backbone, mirror-image nucleic acid
  binding result: binds

## GCCUGAUGUGGUGGUGAAGGGUUGUUGGGUGUCGACGCACAGGC [NOX-D19001-D09]
[1]; dU at 9, affinity improved vs NOX-D19001, amine-coupled for SPR, mirror-image nucleic acid, variant of NOX-D19001
  binding signal: 2 fold

## GCCUGAUGUGGUGGUGAAGGGUUGUUGGGUGUCGACGCACAGGC [NOX-D19001-D09-30]
[1]; dU at 9, 30, better than single substitutions, amine-coupled for SPR, mirror-image nucleic acid, variant of NOX-D19001
  binding result: binds

## GCCUGAUGUGGUGGUGAAGGGUUGUUGGGUGUCGACGCACAGGC [NOX-D19001-D09-32-40]
[1]; dU at 9, 32, dC at 40, better than double substitutions, amine-coupled for SPR, mirror-image nucleic acid, variant of NOX-D19001
  binding result: binds

## GCCUGAUGUGGUGGUGAAGGGUUGUUGGGUGUCGACGCACAGGC [NOX-D19001-D29]
[1]; 2'-deoxy at 29, improved vs parent, 37 C, amine coupled to CM5 chip, synthetic backbone, mirror-image nucleic …
  binding result: binds

## GCCUGAUGUGGUGGUGAAGGGUUGUUGGGUGUCGACGCACAGGC [NOX-D19001-D31]
[1]; 2'-deoxy at 31, reduced or lost vs parent, 37 C, amine coupled to CM5 chip, synthetic backbone, mirror-image nucleic acid
  binding result: binds more weakly

## GCCUGAUGUGGUGGUGAAGGGUUGUUGGGUGUCGACGCACAGGC [NOX-D19001-D41]
[1]; 2'-deoxy at 41, reduced or lost vs parent, 37 C, amine coupled to CM5 chip, synthetic backbone, mirror-image nucleic acid
  binding result: binds more weakly

## GCCUGAUGUGGUGGUGAAGGGUUGUUGGGUGUCGACGCACAGGC [NOX-D19001-D40]
[1]; dC at 40, improved vs parent, amine-coupled for SPR, mirror-image nucleic acid, variant of NOX-D19001
  binding result: binds

## GCCUGAUGUGGUGGUGAAGGGUUGUUGGGUGUCGACGCACAGGC [NOX-D19001-D16]
[1]; dG at 16, improved vs parent, amine-coupled for SPR, mirror-image nucleic acid, variant of NOX-D19001
  binding result: binds

## GCCUGAUGUGGUGGUGAAGGGUUGUUGGGUGUCGACGCACAGGC [NOX-D19001-D18]
[1]; 2'-deoxy at 18, reduced or lost vs parent, 37 C, amine coupled to CM5 chip, synthetic backbone, mirror-image nucleic acid
  binding result: binds more weakly

## CAGACGUGUGUGGGUAGAUGCACCUGCGAUUCGCUAAAAAGUGCCACACGUCUG [NOX-G11-D49]
[2]; L-RNA, dC at 49, reduced or lost binding vs parent, variant of NOX-G11stabi2
  binding result: binds more weakly

## ACTCGAGAGGAAAGGTTGGTAAAGGTTCGGTTGGATTCACTCGAGT [259-H6-002-R06]
[2]; L-DNA, rA at 6, affinity unchanged vs parent, variant of 259-H6-002
  binding result: binds

## CAGACGUGUGUGGGUAGAUGCACCUGCGAUUCGCTAAAAAGUGCCACACGUCUG [NOX-G11-D35]
[2]; L-RNA, dT at 35, unchanged vs parent, 37 C, synthetic backbone
  binding result: binds

## CAGACGUGTGUGGGUAGAUGCACCUGCGAUUCGCUAAAAAGUGCCACACGUCUG [NOX-G11-D09]
[2]; L-RNA, dT at 9, improved vs parent, 37 C, synthetic backbone
  binding result: binds

## CAGACGUGUGUGGGUAGAUGCACCUGCGAUUCGCUAAAAAGUGCCACACGUCUG [NOX-G11-D18]
[2]; L-RNA, 2'-deoxy at 18, improved vs parent, 37 C, synthetic backbone
  binding result: binds

## ACTCGAGAGGAAAGGTTGGUAAAGGTTCGGTTGGATTCACTCGAGT [259-H6-002-R20]
[2]; L-DNA, rU at 20, reduced or lost vs parent, 37 C, synthetic backbone
  binding result: binds more weakly
